PubChem BioAssay AID1259254 – NCATS – 2017
Here is an unselected part of about 59,000 reagents tested. Over the whole deposit, about 1,550 (2.6%) are marked active. 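G2 share is only a proxy for re-replication; each gene was hit by three separate siRNAs, and active genes were retested.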 Unmarked entries are inactive. Reagents against one gene are numbered here. Further read-outs or replicates are left out here. Not stated in the record: the amount of reagent.

Screen: 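Genome-wide screen for genes that prevent DNA re-replication in cancer cells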 (primary screen)
Cells: human HCT116 colorectal cancer cells
Reagents: single siRNA against human genes
Timing: 3 days
Read-out: 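Imaged Hoechst DNA stain sorts each cell into a cycle phase by DNA amount; per plate, G2 fraction set to 0% for non-targeting and 100% for GMNN siRNA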
Direction: G2 robust z-score: higher = more G2 cells, more excess DNA replication
Active means: 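An siRNA counts as active if its G2 robust z-score lies at least 5 MADs above the screen median; here such calls match roughly 38% of GMNN control or more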

With NOL10 (GeneID 79954) #1, what does the deposit list?
G2 robust z-score: 4.07

For NOL10 (GeneID 79954) #2, what does the deposit list?
G2 robust z-score: 1.77

What did the screen give for NOL10 (GeneID 79954) #3?
G2 robust z-score: 1.23

What did the screen give for MTMR14 (GeneID 64419) #1?
G2 robust z-score: 0.0992

How did the screen score MTMR14 (GeneID 64419) #2?
G2 robust z-score: -1.02

For MTMR14 (GeneID 64419) #3, what does the deposit list?
G2 robust z-score: -1.25

What is on record for TPT1 (GeneID 7178) #1?
G2 robust z-score: 3

With TPT1 (GeneID 7178) #2, how do the results read?
G2 robust z-score: 0.341

With TPT1 (GeneID 7178) #3, what was measured?
G2 robust z-score: 0.946

What did the screen give for ANXA11 (GeneID 311) #1?
G2 robust z-score: 5.39 (active)

What is on record for ANXA11 (GeneID 311) #2?
G2 robust z-score: -0.663

For ANXA11 (GeneID 311) #3, what was measured?
G2 robust z-score: 0.369

Which result is listed for TAF11L2 (GeneID 391742) #1?
G2 robust z-score: 0.181

How did the screen score TAF11L2 (GeneID 391742) #2?
G2 robust z-score: -0.167

What is on record for TAF11L2 (GeneID 391742) #3?
G2 robust z-score: -0.76

For ACVRL1 (GeneID 94) #1, what does the deposit list?
G2 robust z-score: 3.79

What did the screen give for ACVRL1 (GeneID 94) #2?
G2 robust z-score: 2.04

With ACVRL1 (GeneID 94) #3, what was measured?
G2 robust z-score: -0.786

Which result is listed for ZNF180 (GeneID 7733) #1?
G2 robust z-score: -0.97

With ZNF180 (GeneID 7733) #2, how do the results read?
G2 robust z-score: -1.47

For ZNF180 (GeneID 7733) #3, what was measured?
G2 robust z-score: -0.628

Which result is listed for SLC25A30 (GeneID 253512) #1?
G2 robust z-score: 0.068

What is on record for SLC25A30 (GeneID 253512) #2?
G2 robust z-score: -0.00209

What did the screen give for SLC25A30 (GeneID 253512) #3?
G2 robust z-score: -0.0215

Entries listed so far whose target name begins with A or a:
ANXA11 (GeneID 311) #1 → G2 robust z-score = 5.39 (active)
ANXA11 (GeneID 311) #2 → G2 robust z-score = -0.663
ANXA11 (GeneID 311) #3 → G2 robust z-score = 0.369
ACVRL1 (GeneID 94) #1 → G2 robust z-score = 3.79
ACVRL1 (GeneID 94) #2 → G2 robust z-score = 2.04
ACVRL1 (GeneID 94) #3 → G2 robust z-score = -0.786
